doi:10.1101/414367

Target: T1, Cex1-HA (S. cerevisiae) (UniProt Q12453)
T1 sequence: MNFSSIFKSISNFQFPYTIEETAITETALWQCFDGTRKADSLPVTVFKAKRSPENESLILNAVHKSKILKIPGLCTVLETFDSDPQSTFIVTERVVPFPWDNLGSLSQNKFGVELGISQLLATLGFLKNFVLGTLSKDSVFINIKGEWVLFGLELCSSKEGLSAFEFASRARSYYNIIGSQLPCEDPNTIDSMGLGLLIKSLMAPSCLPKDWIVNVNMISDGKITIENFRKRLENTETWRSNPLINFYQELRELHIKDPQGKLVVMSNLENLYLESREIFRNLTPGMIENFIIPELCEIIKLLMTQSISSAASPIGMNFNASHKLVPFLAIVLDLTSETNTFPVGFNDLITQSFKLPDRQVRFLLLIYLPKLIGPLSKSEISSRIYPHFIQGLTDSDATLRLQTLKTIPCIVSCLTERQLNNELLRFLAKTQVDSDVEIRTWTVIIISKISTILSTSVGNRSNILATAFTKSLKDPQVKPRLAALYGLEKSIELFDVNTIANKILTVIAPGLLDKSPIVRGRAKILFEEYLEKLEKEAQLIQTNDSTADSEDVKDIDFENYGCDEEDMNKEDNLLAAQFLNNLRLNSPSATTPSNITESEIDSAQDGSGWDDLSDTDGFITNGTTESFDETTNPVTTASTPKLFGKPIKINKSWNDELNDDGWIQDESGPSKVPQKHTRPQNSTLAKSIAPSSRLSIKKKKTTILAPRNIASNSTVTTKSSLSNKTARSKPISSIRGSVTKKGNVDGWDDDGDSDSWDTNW
Test: affinity purification with mass spectrometry

- binding: no binding
B1: Vps27 (protein, UniProt P40343 1-622)
chain: MSVSTPSELDALIEQATSESIPNGDLDLPIALEISDVLRSRRVNPKDSMRCIKKRILNTADNPNTQLSSWKLTNICVKNGGTPFIKEICSREFMDTMEHVILREDSNEELSELVKTILYELYVAFKNDSQLNYVAKVYDKLISRGIKFPEKLTLSNSPTAMFDSKTPADWIDSDACMICSKKFSLLNRKHHCRSCGGVFCQEHSSNSIPLPDLGIYEPVRVCDSCFEDYDLKRHDDSKKSKKHRHKRKKDRDYSTPEDEEELIRKAIELSLKESRNSASSEPIVPVVESKNEVKRQEIEEEEDPDLKAAIQESLREAEEAKLRSERQKASRQMQPQQPSPQPQPIHSVDLSDEEKDSIYMFASLVEKMKSRPLNEILEDSKLQNLAQRVFASKARLNYALNDKAQKYNTLIEMNGKISEIMNIYDRLLEQQLQSINLSQQYTLPQVPSDPYNYLTENVQNPAESYQTPPLQQLSSHQYKPQQDVSRQQSVKANSSPTTNIDHLKTIDVTPHAQQKPQSHVELAPSDPPYPKEEAEDEGTQAVQDEESSTQESRERPYPVETENGETSINKRPQGITRYDFPTVPARKFVQPESTVPLPASSSEIPIKEERPPSPQEELLIEL

No constants are given. Whether binding was seen depends on the method and setting. Binding seen in cells or lysates may run through a third protein. Here binding means that the protein was enriched with, or labelled near, the bait; the list need not be complete. A no says only that the protein was not detected with the bait. Where a sequence is shown, tags or fusion partners need not be part of it.
